# Experimental data reported in the supplement of paper PMC3334620.
# Over roughly 33,000 sequences, “E-score (-0.5 to 0.5)” has its median near -8e-05; the highest 2% begin near 0.23. The list shows a part of the results.
# Target: T1, Nrg2 (UniProt P38082)
# T1 sequence: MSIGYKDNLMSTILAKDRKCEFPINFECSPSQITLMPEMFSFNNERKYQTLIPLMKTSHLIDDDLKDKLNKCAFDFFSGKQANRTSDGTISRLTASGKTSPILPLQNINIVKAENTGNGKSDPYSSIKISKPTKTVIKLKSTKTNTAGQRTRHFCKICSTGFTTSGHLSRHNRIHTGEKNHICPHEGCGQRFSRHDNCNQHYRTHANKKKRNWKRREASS
# Experiment: PBM E-score (8-mer binding enrichment) (E-score (-0.5 to 0.5)); higher = stronger / more preferred TF binding
# Settings: protein concentration: 100 nM; construct: GST-full length
# Procedure, shortened: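 PURExpress in vitro transcription/translation supplied GST-tagged yeast transcription factors, either full-length or DNA-binding domain. Applied at about 100-200 nM to universal all-10-mer Agilent arrays double-stranded by primer extension, the bound protein was detected with fluorescent anti-GST. E-scores, modified Wilcoxon-Mann-Whitney statistics, were given by the Universal PBM Analysis Suite to ungapped eight-base words pooled with their reverse complements after masliner normalisation.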
row,Sequence,PBM E-score
1,AAGGCGCT,-0.0358
2,TATAAACA,0.0233
3,TATGTGCA,0.0106
4,CGCTGACG,-0.152
5,AATCTGCC,0.0761
6,ACTGGCCA,0.0205
7,GTCTCCGA,-0.0812
8,AAATTAAA,0.217
9,ACGAAACA,0.0539
10,GTCTGCCA,-0.122
11,AACGTCTT,-0.041
12,GTACCCTA,0.189
13,GCATCAGA,0.112
14,ACTAAACT,0.143
15,CGTTTAAC,0.145
16,AATTGGCT,0.136
17,ATGACAAA,0.0636
18,CGAGCTAG,0.161
19,AAGCCACC,-0.198
20,CCTGAGAG,-0.056
21,ACCCGTTC,0.21
22,AACCGCAT,0.104
23,AGTTCGCA,0.073
24,ATCGCGAC,0.0998
25,CCCAACGG,0.0588

# Reformatted with bars between the fields: entries from further up.
row | Sequence | PBM E-score
2 | TATAAACA | 0.0233
3 | TATGTGCA | 0.0106
4 | CGCTGACG | -0.152
5 | AATCTGCC | 0.0761

# Going on with the list.

row,Sequence,PBM E-score
1,AGAGGACA,0.0483
2,ATCTAACC,0.0422
3,GTGTCATA,0.109
4,CGAAGGCG,-0.121
5,GACAGGCC,0.0283
6,CGAAAGGC,-0.0186
7,GCGGCAGA,-0.17
8,AGTTTGCC,0.123
9,AAAATTGA,-0.0279
10,TGGTCTAA,-0.106
11,CTACTGTA,0.0573
12,CCCTACCA,0.173
13,CGCCGGTC,-0.175
14,CCGAGCCC,-0.117
15,ATAGTTAA,0.00917
16,GTTGAGCA,0.0601
17,GAAAGGAC,0.129
18,GACAGCTC,-0.0829
19,GATTGTGA,0.0114
20,TACTCTCA,0.0049
21,CGAAGCGC,-0.0339
22,CCGCTTCC,-0.0735
23,ATTTACCA,0.0628
24,ACAGTTGC,-0.00081
25,CCACTTAA,0.0242

row,Sequence,PBM E-score
1,AGGTGCTC,-0.215
2,CATCTACG,0.0805
3,AAGAGATC,-0.0271
4,AAACTCGC,-0.0429
5,AGCCCCAC,0.0204
6,ACAGTGGC,0.0151
7,CGTTCAAG,0.0193
8,GGGCTGGA,-0.1
9,GCAGAGGA,0.0368
10,AACACAGT,0.11
11,TCCCATAA,-0.0342
12,TACCTCGA,-0.00145
13,CAGTAACG,-0.0425
14,GAGAGTAC,-0.0468
15,GATACCGA,-0.236
16,GGATACCA,0.0713
17,AAGGTCGT,-0.0153
18,AGGGAGTC,-0.286
19,AAAGCCTC,-0.232
20,ATAAATCA,0.0708
21,AGTGGAGC,-0.1
22,AGGTGGCA,0.0163
23,CGGAGCTA,-0.17
24,TATGCCAA,0.101
25,CCGGTGAA,-0.128

row,Sequence,PBM E-score
1,AACTTGAC,0.0147
2,CTACGGAA,-0.0963
3,GCGCCGAC,-0.199
4,CCCTGCAC,0.14
5,GCATTAGA,-0.034
6,AGATGAAG,-0.184
7,GGCAACCA,-0.0916
8,GCCTGTTA,-0.062
9,ACTCATGG,-0.0143
10,ATTTCTTC,0.0428
11,AGGGGCTG,0.163
12,CCATTGCA,-0.155
13,ACCGACCG,-0.00577
14,AGTTCTAC,-0.205
15,CAATTGAC,0.00134
16,CTCGAACA,0.0716
17,ACTTACTG,-0.064
18,CCGTAGCC,-0.218
19,CCACCGCC,-0.109
20,GAGACTCA,-0.122
21,ATTTGGCA,0.0425
22,CTGCTTAA,-0.102
23,CTGCCCAG,-0.262
24,CCAGTTAG,-0.0609
25,ACAACGTG,-0.0873

row,Sequence,PBM E-score
1,CTGAAGTA,-0.0535
2,CAGCTAAG,-0.094
3,GGCTAGAC,-0.27
4,CGGCAACG,-0.0325
5,CTATCCTA,-0.0404
6,CGGTAATC,-0.152
7,AGCATCCA,0.1
8,GCAAATCC,0.0135
9,CTCCACAC,-0.0605
10,ATGGTTAG,0.111
11,AACCGGAG,0.00407
12,GGGGAGCA,-0.291
13,CTGCAAAG,-0.0255
14,GCCGCCAC,-0.231
15,CTACGTAA,-0.167
16,ATGCCTGC,-0.0561
17,CATACAGA,0.0699
18,ATGGAGGC,-0.224
19,AAGTTCGA,0.17
20,CCTGATCC,0.0888
21,CGAGCTTA,-0.0737
22,GCCGTCAA,-0.128
23,AAGCTTGT,0.0784
24,GTTTGGCA,-0.0345
25,CTTCTGCC,-0.0882

row,Sequence,PBM E-score
1,AAGGTTTG,0.0916
2,AGCGACAA,0.148
3,CTGGAGCA,0.0581
4,GACGGCTC,-0.165
5,CCTATCTC,0.134
6,TATGGCAA,0.0645
7,AAATACCC,0.175
8,GCAAAGCA,-0.139
9,GCTCGGCC,-0.156
10,AATCGGGA,0.0375
11,ACAGTACT,-0.127
12,CTCCCGTC,0.0244
13,AGGGCTCA,0.00575
14,CTATCGAC,-0.166
15,GCCGAAAA,0.239
16,CTGTACGC,-0.11
17,CTAGTGCA,0.108
18,AGTCAACT,-0.198
19,CAATCGGC,-0.00335
20,ACAAATTC,0.134
21,CCTGACAG,0.159
22,GCCGCACC,0.108
23,TGTGCCAA,0.135
24,GCCAAACA,0.0821
25,CAGTATTC,-0.00222

row,Sequence,PBM E-score
1,CCAAGCTC,0.195
2,CACAATAA,-0.0701
3,AAGGCTGT,-0.167
4,AGGGCCTC,-0.0367
5,CGCGGTAA,0.0932
6,GACCCTAC,0.184
7,GGTCGAAA,0.00719
8,ATAGCGAT,-0.0278
9,GGTACTCA,0.0143
10,TATCACAA,0.0943
11,CTTTTGTC,0.117
12,CTGCCGTA,-0.174
13,GCACCATA,-0.061
14,GGTTCGTA,0.03
15,CCCTTCAC,-0.0285
16,ACAGCCTC,-0.213
17,CATTTTAG,0.175
18,CGCTCCAC,-0.159
19,TCTTTACA,0.165
20,ATGGCATG,0.15
21,AGCTAAAA,0.0331
22,ATTCGAAG,0.114

# Random excerpt: four records from the list, in no set order.
row,Sequence,PBM E-score
3,GTGTCATA,0.109
12,GTACCCTA,0.189
11,TCCCATAA,-0.0342
9,ACTCATGG,-0.0143
